Data from publication PMC8484663.
Results are given in words; binding and its absence hold for the method and conditions named. Binding seen in cells or lysates may run through a third protein. These calls come from enrichment with a bait or labelling near it, and not all partners need be listed.

Molecular target: MdRNL2 (apple (Malus x domestica))
Assay: affinity purification with mass spectrometry; semi-in vivo pull-down with MdRNL2 as bait, LC-MS of what was pulled down; proteins pulled down with an empty vector set aside

- binding: binds
B1: MdPR10-2 (protein, UniProt Q40280 1-159)
chain: MGVYTFENEYTSEIPPPRLFKAFVLDADNLIPKIAPQAIKHAEILEGDGGPGTIKKITFGEGSQYGYVKHKIDSVDEANYSYAYTLIEGDALTDTIEKVSYETKLVASGSGSIIKSISHYHTKGDVEIKEEHVKAGKEKAHGLFKLIESYLKGHPDAYN
